The target in test [1] is Staufen-1 HA (pcDNA3-RSV-Stau1 55 HA) (UniProt O95793). Kind of test: co-IP.
Test [2] has as its target APOBEC3G HA, Q9HC16. Kind of test: co-IP. The conditions noted are these: remark: other sources report otherwise.

Sequences of proteins named here, by UniProt entry; tags and fusion partners are left off. Residues count along the entry.
UniProt O95793, residues 82-577: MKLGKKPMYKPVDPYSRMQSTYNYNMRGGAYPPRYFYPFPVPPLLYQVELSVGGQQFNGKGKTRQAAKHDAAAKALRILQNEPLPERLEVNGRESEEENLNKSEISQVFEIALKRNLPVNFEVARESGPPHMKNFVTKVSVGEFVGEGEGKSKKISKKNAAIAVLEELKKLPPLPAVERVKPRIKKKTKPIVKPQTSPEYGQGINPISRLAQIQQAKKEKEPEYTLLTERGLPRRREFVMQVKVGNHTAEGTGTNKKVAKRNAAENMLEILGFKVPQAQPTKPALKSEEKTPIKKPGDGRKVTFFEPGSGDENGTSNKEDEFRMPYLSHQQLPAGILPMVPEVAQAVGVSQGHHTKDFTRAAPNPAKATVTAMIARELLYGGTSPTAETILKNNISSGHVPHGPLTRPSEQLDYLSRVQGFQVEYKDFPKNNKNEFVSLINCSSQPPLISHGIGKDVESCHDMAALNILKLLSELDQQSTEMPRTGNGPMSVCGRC

These are yes or no findings as the source states them, for the method shown. In cells and extracts the contact can be indirect. Some entries that bind do so weakly or less than the wild type. For some assays here: Tags and fused reporters may be left off the sequences shown.

B1: Staufen-2 (detected with anti-Staufen-2 antibody in HEK293T lysate) (protein, UniProt Q9NUL3 1-570)
chain: MANPKEKTAMCLVNELARFNRVQPQYKLLNERGPAHSKMFSVQLSLGEQTWESEGSSIKKAQQAVANKALTESTLPKPVQKPPKSNVNNNPGSITPTVELNGLAMKRGEPAIYRPLDPKPFPNYRANYNFRGMYNQRYHCPVPKIFYVQLTVGNNEFFGEGKTRQAARHNAAMKALQALQNEPIPERSPQNGESGKDVDDDKDANKSEISLVFEIALKRNMPVSFEVIKESGPPHMKSFVTRVSVGEFSAEGEGNSKKLSKKRAATTVLQELKKLPPLPVVEKPKLFFKKRPKTIVKAGPEYGQGMNPISRLAQIQQAKKEKEPDYVLLSERGMPRRREFVMQVKVGNEVATGTGPNKKIAKKNAAEAMLLQLGYKASTNLQDQLEKTGENKGWSGPKPGFPEPTNNTPKGILHLSPDVYQEMEASRHKVISGTTLGYLSPKDMNQPSSSFFSISPTSNSSATIARELLMNGTSSTAEAIGLKGSSPTPPCSPVQPSKQLEYLARIQGFQAALSALKQFSEQGLDPIDGAMNIEKGSLEKQAKHLREKADNNQAPPGSIAQDCKKSNSAV
For B1, the binding result in test [1] is “binds”.

B2: APOBEC3G HA, Q9HC16 1-384 (protein)
chain: MKPHFRNTVERMYRDTFSYNFYNRPILSRRNTVWLCYEVKTKGPSRPPLDAKIFRGQVYSELKYHPEMRFFHWFSKWRKLHRDQEYEVTWYISWSPCTKCTRDMATFLAEDPKVTLTIFVARLYYFWDPDYQEALRSLCQKRDGPRATMKIMNYDEFQHCWSKFVYSQRELFEPWNNLPKYYILLHIMLGEILRHSMDPPTFTFNFNNEPWVRGRHETYLCYEVERMHNDTWVLLNQRRGFLCNQAPHKHGFLEGRHAELCFLDVIPFWKLDLDQDYRVTCFTSWSPCFSCAQEMAKFISKNKHVSLCIFTARIYDDQGRCQEGLRTLAEAGAKISIMTYSEFKHCWDTFVDHQGCPFQPWDGLDEHSQDLSGRLRAILQNQEN
Consider B2, for which the binding result in test [2] is “binds”.

These data come from PMC8703407.
